The source of these data is US20190100600A1.

By UniProt entry, the sequences of proteins in these tests, tags left out. Residues count along the entry.
UniProt Q00604, residues 25-133: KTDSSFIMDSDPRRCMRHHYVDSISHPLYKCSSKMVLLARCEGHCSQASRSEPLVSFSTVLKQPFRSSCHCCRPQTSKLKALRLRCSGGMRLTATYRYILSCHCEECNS

The target in this experiment is T1, purified recombinant LGR5 ectodomain-IgG-Fc fusion (human) (UniProt O75473).
T1 sequence: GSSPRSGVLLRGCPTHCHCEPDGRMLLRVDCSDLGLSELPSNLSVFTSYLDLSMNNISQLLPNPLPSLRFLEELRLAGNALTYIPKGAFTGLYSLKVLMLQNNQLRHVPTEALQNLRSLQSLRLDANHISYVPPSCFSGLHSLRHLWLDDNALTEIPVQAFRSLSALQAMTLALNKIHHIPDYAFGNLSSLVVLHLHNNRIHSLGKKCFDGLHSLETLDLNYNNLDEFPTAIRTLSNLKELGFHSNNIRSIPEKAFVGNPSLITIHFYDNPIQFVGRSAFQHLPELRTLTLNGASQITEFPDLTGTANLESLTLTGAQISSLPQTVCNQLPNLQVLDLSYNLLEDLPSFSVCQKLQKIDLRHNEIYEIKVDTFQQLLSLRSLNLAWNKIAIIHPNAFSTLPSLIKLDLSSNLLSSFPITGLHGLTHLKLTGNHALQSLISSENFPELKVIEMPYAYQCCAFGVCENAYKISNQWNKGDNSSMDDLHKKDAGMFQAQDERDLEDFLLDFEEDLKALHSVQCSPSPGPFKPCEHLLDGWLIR
Briefly: ELISA of the ternary complex: Norrin preincubated with LGR5-Fc, co-receptor-Fc coated. For orientation: An ELISA detects its analyte on a solid surface through an enzyme-linked reagent.

These are yes or no findings as the source states them, for the method shown. Some entries that bind do so weakly or less than the wild type. Sequences can lack the tags named with a protein.

As to “Norrin (from UniProt Q00604 25-133) (ligand)”, the binding entry is listed as “binds”.
